Results are given in words; binding and its absence hold for the method and conditions named. In cells and extracts the contact can be indirect. Some binding calls cover weakened binding; strength is not graded here. Where a sequence is shown, tags or fusion partners need not be part of it.
The substances below were run against T1, HA-tagged full human C3G (human) (UniProt Q13905) (assay: co-IP; HEK293T cells co-transfected with HA-C3G and CFP-VAMP-7 fusion proteins; immunoprecipitated with anti-HA.11; VAMP-7 detected with anti-TI-VAMP).
T1 sequence: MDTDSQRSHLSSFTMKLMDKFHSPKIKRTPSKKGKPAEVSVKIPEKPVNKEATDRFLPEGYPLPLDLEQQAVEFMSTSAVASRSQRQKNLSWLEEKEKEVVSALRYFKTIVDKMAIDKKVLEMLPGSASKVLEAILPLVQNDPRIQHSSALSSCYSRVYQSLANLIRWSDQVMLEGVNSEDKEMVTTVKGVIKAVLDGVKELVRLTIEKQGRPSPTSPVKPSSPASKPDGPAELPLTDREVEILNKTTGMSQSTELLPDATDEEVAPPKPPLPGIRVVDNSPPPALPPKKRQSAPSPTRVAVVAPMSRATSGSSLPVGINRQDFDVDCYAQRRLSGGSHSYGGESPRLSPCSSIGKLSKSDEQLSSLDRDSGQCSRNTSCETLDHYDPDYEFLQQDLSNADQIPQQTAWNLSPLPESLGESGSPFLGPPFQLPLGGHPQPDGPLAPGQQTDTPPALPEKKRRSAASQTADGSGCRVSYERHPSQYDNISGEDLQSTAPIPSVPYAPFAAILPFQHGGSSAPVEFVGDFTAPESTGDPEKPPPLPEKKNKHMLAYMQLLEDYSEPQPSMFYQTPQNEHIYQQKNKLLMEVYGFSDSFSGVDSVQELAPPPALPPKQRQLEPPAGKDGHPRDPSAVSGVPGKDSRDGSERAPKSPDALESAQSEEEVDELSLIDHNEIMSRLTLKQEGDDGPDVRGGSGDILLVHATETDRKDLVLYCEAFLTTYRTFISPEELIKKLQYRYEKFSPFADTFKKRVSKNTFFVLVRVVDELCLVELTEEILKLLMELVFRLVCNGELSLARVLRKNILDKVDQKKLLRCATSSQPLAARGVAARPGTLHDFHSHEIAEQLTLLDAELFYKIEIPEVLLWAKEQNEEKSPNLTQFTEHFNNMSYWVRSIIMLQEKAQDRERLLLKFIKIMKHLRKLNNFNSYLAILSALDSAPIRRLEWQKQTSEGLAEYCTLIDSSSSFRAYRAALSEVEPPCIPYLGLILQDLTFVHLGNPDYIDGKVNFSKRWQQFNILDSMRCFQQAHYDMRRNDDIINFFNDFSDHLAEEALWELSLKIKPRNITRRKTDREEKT

By UniProt entry, the sequences of proteins in these tests, tags left out. Where a name states a change or a piece, a line headed by the entry shows the natural chain unless it says otherwise.
UniProt P51809: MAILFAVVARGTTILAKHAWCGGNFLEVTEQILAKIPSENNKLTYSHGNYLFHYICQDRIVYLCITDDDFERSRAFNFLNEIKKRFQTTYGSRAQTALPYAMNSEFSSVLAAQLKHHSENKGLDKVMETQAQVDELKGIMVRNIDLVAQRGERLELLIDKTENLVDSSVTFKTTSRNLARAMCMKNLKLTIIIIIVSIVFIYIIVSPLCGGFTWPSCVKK

binding, binds:
CFP-VAMP7-CT, C-terminal (SNARE) domain of VAMP-7 (aminoacids 121-188) (from UniProt P51809 121-188) (domain or fragment)
CFP-VAMP7-cyto, VAMP-7 cytosolic domain (aminoacids 1-188) (from UniProt P51809 1-188) (domain or fragment)
CFP-VAMP7-NT, N-terminal (longin) domain of VAMP-7 (aminoacids 1-120) (from UniProt P51809 1-120) (domain or fragment)

Reference: paper PMC5762300
